# The campaign covered roughly 31,000 sequences. About 1,400 (4.5%) were called active.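 Rule for the calls: active = median seed-adjusted z-score above 1 or below -1; inactive = the rest.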 Some of the results follow.
# Assay: Novel Modifiers of Survival Motor Neuron (SMN) Protein: Gene Identification via Genome-wide siRNA Screen;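 note: luminescence tracks full-length SMN protein made from the SMN2 reporter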
# Settings: HEK293T SMN2-luciferase reporter, siRNA knockdown, 72 h; actives lie on both sides
# Procedure, shortened: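 siRNA screen, 10418 genes ×3 siRNAs; 1 pmol/well, lipid reverse transfection into HEK293T SMN2-luc reporter line. 72 h, 37 °C, 5% CO2; ONE-Glo readout. Data: neg-ctrl normalized, log10, MAD; hit = MAD >1.0 or < -1.0.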
row,Sequence,median seed-adjusted z-score
1,AGGACAAUCCUGACAAGAATT against SEMA7A,inactive: 0.0522
2,GACAGUAACUUUAAUUCCATT against IDH3A,inactive: 0.137
3,GGUCAUAGCCGUGAACGAATT against CHL1,inactive: 0.1
4,CCAUAUUGGAGAAUCCAGATT against CCNH,inactive: -0.659
5,GGAAGAAGGUGAUCGAUGATT against HIVEP3,inactive: 0.516
6,CAAAGAUGUUGAUAUGCCUTT against GJC2,inactive: 0
7,AAUCUAUUGCUGUCAGAUATT against TUBB3,inactive: 0.208
8,AGAAAUUGGUGUUCAGAAUTT against GTF2F2,active: -1.14
9,GCUUCCUGAUUAUCGACGATT against DDX51,inactive: -0.0715
10,GACAAGUACAAGACCAUUATT against SERPINA10,inactive: 0.0233
11,GCAGUUUGGGUACAACAUUTT against SLC2A4,inactive: 0.0588
12,GUUUCCAACUUGCUCAUGATT against CDK10,inactive: 0.327
13,GGGUGCACAUCAUUAAGAATT against TBX20,inactive: 0.00303
14,GCUUCUUGCCCGACCUCAATT against KCNC3,inactive: 0.279
15,CCUAUGAUCCAACACCAUATT against GMPPA,inactive: 0.619
16,CCUCAGUGGUUUAACAGGATT against KCNK18,inactive: 0.115
17,GACCUUCAGUGCCCAAGUATT against COL9A3,inactive: 0.16
18,GAGAUAUCAUAUGAGAUCATT against BAZ2A,inactive: 0.73
19,ACUUUGUCCGUGUGUCUUATT against SLC30A3,active: -1.26
20,GGUUGCAUUGAUGAAAUUATT against ZFAND1,inactive: -0.272
21,CGCGCAAUGUGACCGUGAATT against MAG,inactive: -0.0667
22,GCGAAGCUCUUUAGAGGAATT against IKZF1,inactive: -0.298

# Some of the entries above in another layout.
row	Sequence	median seed-adjusted z-score
14	GCUUCUUGCCCGACCUCAATT against KCNC3	inactive: 0.279
15	CCUAUGAUCCAACACCAUATT against GMPPA	inactive: 0.619
16	CCUCAGUGGUUUAACAGGATT against KCNK18	inactive: 0.115
17	GACCUUCAGUGCCCAAGUATT against COL9A3	inactive: 0.16
18	GAGAUAUCAUAUGAGAUCATT against BAZ2A	inactive: 0.73

# (cont.)

row,Sequence,median seed-adjusted z-score
1,CAAUGCAUUGUAUUCAGAATT against PRKY,inactive: 0.168
2,GAACAUUGAGUCGACAAUUTT against STX5,inactive: 0.108
3,GAUGCUGCCUCUCAACUUATT against MAT2B,inactive: -0.554
4,GCUAGAACGGGAACGAAGATT against NEK10,inactive: -0.0464
5,GAUUUGCUGUUCGACAAGATT against IMPA2,inactive: 0.0513
6,GCACCUAUGUCUCAGCUAATT against LTBR,inactive: 0
7,CCAACAUGCCUGCCUCAUUTT against PNMT,inactive: -0.559
8,GCCUUUGGACAACUAUUUUTT against TPK1,inactive: 0.521
9,GGCUAUGCAUGUUUAAAGATT against GNG2,inactive: 0.369
10,ACUGUAUGGAGUUCCAGAATT against SLC6A13,inactive: 0.267
11,CCACUGUCUGUAUCAGUAUTT against ARGFX,inactive: 0.273
12,GGUAUAUACUAGAAAACCATT against RFPL4B,inactive: 0.92
13,GAGCUCUCAUGGAAUGUCATT against DBH,inactive: 0.337
14,GCAUGAUCAUGCUGAUUAUTT against GSR,inactive: -0.467
15,AAACCGAGAUGCCUCUACATT against HMGN4,inactive: -0.0471
16,GGAUUACAGGAGACCCAUATT against FUBP1,active: -1.52
17,GGAGUUUGCAUGGACAAUATT against WISP1,inactive: -0.0121
18,GAAGGGACCUUAUUCGUAUTT against DCP1A,inactive: 0.361
19,CCUACCAUCUUGUCCCUAATT against SLC7A6,inactive: -0.0877
20,CAAUGGUAGAUAUGACGAUTT against USP34,inactive: 0.0665
21,GGAUUUCAACCUAGCAAAATT against ZNF454,inactive: 0
22,GGCCCAGUCCAAAUGGUUUTT against GAS7,inactive: 0.335

# A second format for some results above.
row | Sequence | median seed-adjusted z-score
10 | GACAAGUACAAGACCAUUATT against SERPINA10 | inactive: 0.0233
11 | GCAGUUUGGGUACAACAUUTT against SLC2A4 | inactive: 0.0588

# Going on with the list.

row,Sequence,median seed-adjusted z-score
1,GCACUGAUUUCCUAUUUGATT against NDST2,inactive: -0.0582
2,GGCUCAGUGCUAUGGAGAATT against MPZ,inactive: 0.337
3,UACCAGAAGUUCUUCGAUATT against ST6GAL1,inactive: -0.14
4,GCUCAUUGGUACAAUGUCATT against POLE,active: -1.55
5,CGGGCAGUAACUAACCAUATT against DCXR,inactive: -0.394
6,CCCAGAAGAUGACCACUCATT against PDXDC1,inactive: 0.665
7,CAACUUCCCGAAUCAGGAATT against CA6,inactive: 0.349
8,GGAGCAAUUUUACGAACUATT against ZC3H7A,inactive: 0.208
9,GCUGCAACCAGAGCAUGAATT against ZNF513,inactive: -0.0616
10,GGCAUGAAAUGGGUAGAUATT against DOCK7,inactive: 0.23
11,GUUAUGCAAUGAGUACUGATT against BIRC2,inactive: 0.336
12,GAAAGGAUAUGUUACUCCUTT against CTSK,inactive: 0.0972
13,GGACAACAGUCAGUCAAAUTT against ANP32D,inactive: -0.714
14,GUCUAUUCUAUUUAUCCUATT against AP4E1,inactive: 0
15,GCAUCAUGGUCAAGACUUUTT against UBE2O,inactive: 0.125
16,AGAACUUACUCAUGGGCAATT against GRAP2,inactive: 0.296
17,GAGUGUUUGUGAAUUGCAATT against CD3D,inactive: -0.403
18,AGUGAACGGCUGGUCGUUATT against ZDHHC11,inactive: -0.098
19,GAUACGGAAUGGUCAAACATT against VRK1,inactive: -0.148
20,GCAUCGUCAGAGAAACCCATT against ST6GAL2,inactive: 0.054
21,CCGUAUUGCUAAACCUACATT against SLC44A5,inactive: 0.179
22,CCACGAGAUUUCACAAACATT against PRKD3,inactive: -0.906

row,Sequence,median seed-adjusted z-score
1,AGACGACCUUUGAUGUCUATT against CEL,inactive: 0
2,GGUUUAUGGUGAUUGCAUUTT against ASPH,inactive: 0.0199
3,CUGUGAAUCUGCAACAAGATT against PGM3,inactive: -0.527
4,GGAAAGCAACAUACAGACATT against FABP6,inactive: 0.122
5,GUCUAUUACUAUAUGCGCATT against SMG6,inactive: -0.265
6,GUGACCAACCCAAAACGUATT against ENO2,inactive: 0.418
7,GUAUGUUGAUCCAUCAAGATT against USP25,inactive: 0.0461
8,GGUUCCAUCUUACUUGUCATT against M6PR,inactive: -0.879
9,GAAGCAUAUUGUUAUUAUATT against CCL7,inactive: 0.23
10,GGAUCUGACAACAAACUGATT against AP3S1,inactive: 0.787
11,AGAUGACAGACCAAAGUUATT against CYB5A,inactive: 0.226
12,GAUCAAGACUCUGCGCCUATT against HAND1,inactive: 0.161
13,CCUACAAGGUUACUCACUATT against NAMPT,inactive: 0
14,GCAUGAAAGAGGACCAGAATT against KCNK1,inactive: 0.124
15,CACUCUCACUUAUUAAAGATT against PGCP,inactive: 0.145
16,GGAGGAAGGUCUCAACGUATT against TCFL5,active: 1.52
17,CUAUCGUGAUGCUAACAGATT against PTPRA,inactive: -0.438
18,GAACGGAUCAGAUGUCUAUTT against PGK1,inactive: -0.0196
19,CCAUCGUAGGGAUCAUAGUTT against TNFRSF10C,inactive: 0
20,GCCCUAUUGUUACUGUUGATT against SMAD4,inactive: 0.0746
21,ACAGUGACGUGAAAGUCUATT against LIMS3,inactive: -0.078
22,GGACAGCAAUGUCACACUUTT against COL16A1,inactive: -0.0496

row,Sequence,median seed-adjusted z-score
1,CCAACUGAUUUAGAGAUGATT against MED4,inactive: -0.632
2,AGAUGAACCGGGUCAUCAATT against ATP1B2,inactive: -0.185
3,GCCCUCAUGCUGUAAAGAATT against CCL25,inactive: 0.0698
4,GCUACUUGUUUCUUCUGGATT against TBX6,inactive: 0.144
5,CAGCUAAGGUGAUAGCGGATT against DPYS,inactive: -0.288
6,CCUUUGAUCAUUCACCAAATT against PTPN2,inactive: 0.302
7,GGUAGUUCCUGACCAUUAUTT against ADAMTSL3,inactive: -0.0419
8,GGGUCCUGUUCAUAAAGGATT against KCTD10,inactive: -0.506
9,UGUGGAGAAUGACUACAUATT against SPRY4,active: -1.23
10,CAUCCGAUUUAAUAGUGUUTT against TARDBP,inactive: 0.987
11,GCUGGUUUAUUUAACUCGATT against E2F6,inactive: -0.299
12,GGAGUUCCUGAGUACCCAATT against PTPRF,inactive: 0.413
13,GUUCGAAUCAAGAACCCUATT against NT5C3,inactive: -0.456
14,GGAUUUAAGUUGCUCUGGATT against SLC11A2,inactive: -0.157
15,GCACCGUAUUUGUGAUUGATT against CDH24,inactive: 0.31
16,CCUUGGUCUGAACACGAAATT against BIRC6,inactive: 0.0785
17,GUCGGGUCCUCACAAUUCATT against PUS1,inactive: -0.308
18,GCUAUGAUGUUUCGACAGATT against RAPGEF6,inactive: -0.186
19,GUGCAUCGAUUUAAGCAGATT against RIMS1,inactive: 0
20,GGUAUAAUCAGAAAACGGATT against ATP11A,inactive: 0.158
